Test results published in the supplement of paper PMC11098740.
Where a name gives a salt, the structure may show the parent alone. Some of the results follow. Single values are uncertain, as repeats are few or missing.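 Test system: a mixed pool of 41 HAP1 clones in which 61 cancer-associated proteins carry fluorescent tags inserted into introns, and each clone is identified from its image pattern. Read-outs are compared with DMSO-treated control wells. The BRD4 degrader dBET6 served as the positive control.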 Where a SMILES comes first, the peptide text is derived from it. Bridges are numbered along the chain shown (N, C = ends). [ ]: non-standard residue; d: D form. hArg = N=C(N)NCCCC[C@H](N)C(=O)O; Mpa = O=C(O)CCS

Sequences of proteins named here, by UniProt entry; tags and fusion partners are left off.
UniProt O14980, whole entry: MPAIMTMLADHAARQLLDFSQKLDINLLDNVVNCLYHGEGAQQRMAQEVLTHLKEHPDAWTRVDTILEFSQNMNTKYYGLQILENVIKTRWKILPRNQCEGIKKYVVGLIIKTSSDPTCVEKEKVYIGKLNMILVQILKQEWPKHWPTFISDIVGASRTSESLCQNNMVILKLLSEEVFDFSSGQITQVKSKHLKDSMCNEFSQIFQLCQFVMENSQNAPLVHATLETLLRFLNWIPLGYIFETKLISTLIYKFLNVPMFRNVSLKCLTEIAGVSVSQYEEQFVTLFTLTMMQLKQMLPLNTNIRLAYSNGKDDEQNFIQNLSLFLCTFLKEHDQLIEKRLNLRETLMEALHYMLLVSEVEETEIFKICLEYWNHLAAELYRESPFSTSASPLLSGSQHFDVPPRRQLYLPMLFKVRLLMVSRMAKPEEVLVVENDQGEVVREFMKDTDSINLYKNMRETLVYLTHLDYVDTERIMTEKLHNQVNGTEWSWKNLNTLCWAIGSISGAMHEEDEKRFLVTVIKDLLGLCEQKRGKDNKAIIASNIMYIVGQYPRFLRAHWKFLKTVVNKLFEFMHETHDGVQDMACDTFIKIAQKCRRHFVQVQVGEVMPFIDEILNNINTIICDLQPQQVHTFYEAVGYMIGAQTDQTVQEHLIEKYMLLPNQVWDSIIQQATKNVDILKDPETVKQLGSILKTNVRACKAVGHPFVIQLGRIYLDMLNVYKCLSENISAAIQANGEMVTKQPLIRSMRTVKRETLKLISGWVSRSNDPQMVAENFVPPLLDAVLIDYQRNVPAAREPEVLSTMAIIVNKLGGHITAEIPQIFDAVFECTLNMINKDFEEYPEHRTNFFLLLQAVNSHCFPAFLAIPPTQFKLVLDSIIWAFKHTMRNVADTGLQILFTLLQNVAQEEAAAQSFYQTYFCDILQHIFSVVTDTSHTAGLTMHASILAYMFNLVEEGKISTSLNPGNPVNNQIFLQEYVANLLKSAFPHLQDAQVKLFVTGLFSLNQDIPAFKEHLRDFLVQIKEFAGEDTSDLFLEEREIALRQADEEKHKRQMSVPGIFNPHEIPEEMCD

target: XPO1 (intron 15 mScarlet tag, HAP1) (UniProt O14980); assay: XPO1 fluorescence intensity change vs DMSO (log2 fold change); higher = more XPO1 protein; conditions: 6 h

Row | SMILES | XPO1 fluorescence intensity change (log2)
1 | NS(=O)(=O)c1cc(Cl)c(Cl)c(S(N)(=O)=O)c1 [Dichlorphenamide] (10 µM) | 0.00444
2 | CCC(=C/[C@H](C)C/C=C/C(C)=C/[C@@H](C)C(=O)[C@@H](C)[C@H](O)[C@@H](C)C/C(C)=C/C(=O)O)/C=C/[C@@H]1OC(=O)C=C[C@@H]1C [Leptomycin B] (0.01 µM) | -0.219
3 | CCC1(c2ccccc2)NC(=O)N(C)C1=O (stereo not given) [Mephenytoin] (10 µM) | 0.0972
4 | CC[C@]1(O)C[C@@H]2CN(CCc3c([nH]c4ccccc34)[C@@](C(=O)OC)(c3cc4c(cc3OC)N(C)[C@H]3[C@@](O)(C(=O)OC)[C@H](OC(C)=O)[C@]5(CC)C=CCN6CC[C@]43[C@@H]65)C2)C1 [Vinblastine Sulfate] (0.73008 µM) | 0.102
5 | CCN(CC)C(=O)N1CCN(C)CC1 [Diethylcarbamazine] (9.99954 µM) | 0.0443
6 | CCOC(=O)C1=C[C@@H](OC(CC)CC)[C@H](NC(C)=O)[C@@H](N)C1 [Oseltamivir] (9.9999 µM) | 0.198
7 | NC(=O)c1cnccn1 [Pyrazinamide] (10 µM) | 0.169
8 | CC1(C)CNc2cc(NC(=O)c3cccnc3NCc3ccncc3)ccc21 [Motesanib] (10 µM) | -0.0499
9 | CCCc1cc(=O)[nH]c(=S)[nH]1 [Propylthiouracil] (10 µM) | -0.107
10 | CN1C(=O)CC(c2ccccc2)C1=O (stereo not given) [Phensuximide] (10 µM) | 0.0603
11 | Cc1ccc(NC(=O)NCc2ccc3c(c2)CN(C2CCC(=O)NC2=O)C3=O)cc1Cl (stereo not given) (1 µM) | -0.108
12 | Cc1ccc(C(=O)Nc2ccc(CN3CCN(C)CC3)c(C(F)(F)F)c2)cc1C#Cc1cnc2cccnn12 [Ponatinib] (2.5795 µM) | 0.039
13 | NNc1nncc2ccccc12 [Hydralazine] (10 µM) | -0.0208
14 | CC[N+](C)(C)Cc1ccccc1Br [Bretylium Tosylate] (17 µM) | 0.0276
15 | CCCc1nc(C(C)(C)O)c(C(=O)OCc2oc(=O)oc2C)n1Cc1ccc(-c2ccccc2-c2nnn[nH]2)cc1 [Olmesartan Medoxomil] (10.00003285 µM) | 0.0346
16 | Nc1ncn([C@@H]2O[C@H](CO)[C@@H](O)[C@H]2O)c(=O)n1 [Azacitidine] (10 µM) | -0.226
17 | C#CCN(C)Cc1ccccc1 [Pargyline] (10.0004 µM) | 0.0545
18 | C[C@]12C=CC(=O)C=C1CC[C@@H]1[C@@H]2[C@@H](O)C[C@@]2(C)[C@H]1CC[C@]2(O)C(=O)CO [Prelone] (1.1755 µM) | -0.153
19 | O=C1c2c(O)ccc(O)c2C(=O)c2c(NCCNCCO)ccc(NCCNCCO)c21 [Mitoxantrone] (0.1144 µM) | 0.077
20 | C[C@](N)(Cc1ccc(O)cc1)C(=O)O [Metyrosine] (10 µM) | -0.00284
21 | CNC(=O)c1ccc(N2C(=S)N(c3ccc(C#N)c(C(F)(F)F)c3)C(=O)C2(C)C)cc1F [Enzalutamide] (20 µM) | -0.113
22 | CC1(C)C[C@@H]1C(=O)N/C(=C\CCCCSC[C@H](N)C(=O)O)C(=O)O [Cilastatin] (10 µM) | 0.0605
23 | N=C(N)NCCCC[C@@H]1NC(=O)CCSSC[C@@H](C(N)=O)NC(=O)[C@@H]2CCCN2C(=O)[C@H](Cc2c[nH]c3ccccc23)NC(=O)[C@H](CC(=O)O)NC(=O)CNC1=O [Eptifibatide] (10.00039278 µM) ([Mpa][hArg]GDWPC-NH2; disulfide 1-7) | 0.0335
24 | CCC(c1ccccc1)c1c(O)c2ccccc2oc1=O (stereo not given) [Phenprocoumon] (10 µM) | 0.0717
25 | CC(C)NC[C@@H](C(=O)N1CCN(c2ncnc3c2[C@H](C)C[C@H]3O)CC1)c1ccc(Cl)cc1 [Ipatasertib dihydrochloride] (20 µM) | -0.0233
26 | CCN(CC)Cc1cc(Nc2ccnc3cc(Cl)ccc23)ccc1O [Amodiaquine] (10.0001 µM) | -0.194
27 | CCN(CC)CCCC(C)Nc1ccnc2cc(Cl)ccc12 (stereo not given) [Chloroquine] (9.99975 µM) | -0.00604
28 | Cc1cn(-c2cc(NC(=O)c3ccc(C)c(Nc4nccc(-c5cccnc5)n4)c3)cc(C(F)(F)F)c2)cn1 [Nilotinib] (20 µM) | -0.0273
29 | C=C(c1ccc(C(=O)O)cc1)c1cc2c(cc1C)C(C)(C)CCC2(C)C [Bexarotene] (20 µM) | 0.104
30 | COc1cc2nc(N3CCN(C(=O)C4CCCO4)CC3)nc(N)c2cc1OC (stereo not given) [Terazosin] (10 µM) | 0.21

In a second layout: results already given.
Row	SMILES	XPO1 fluorescence intensity change (log2)
28	Cc1cn(-c2cc(NC(=O)c3ccc(C)c(Nc4nccc(-c5cccnc5)n4)c3)cc(C(F)(F)F)c2)cn1 [Nilotinib] (20 µM)	-0.0273
29	C=C(c1ccc(C(=O)O)cc1)c1cc2c(cc1C)C(C)(C)CCC2(C)C [Bexarotene] (20 µM)	0.104
